Source: patent US20140363441A1 (priority 2013, published 2014)
Where a chain is given by its changes, count along the chain named. No constants are given. Whether binding was seen depends on the method and setting. Some binding calls cover weakened binding; strength is not graded here.

Sequences of proteins named here, by UniProt entry; tags and fusion partners are left off.
UniProt P06821: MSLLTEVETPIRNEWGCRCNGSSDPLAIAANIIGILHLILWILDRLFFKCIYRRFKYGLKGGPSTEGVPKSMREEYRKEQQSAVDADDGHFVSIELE

Experiments:
[1] = target: influenza A/Puerto Rico/8/34 (PR8) virus particles (M2 protein on the virion) (influenza A virus H1N1 A/Puerto Rico/8/34) (UniProt P06821); experiment: ELISA on PR8 virus, crude supernatant
[2] = target: influenza A/Puerto Rico/8/34 (PR8) virus particles (M2 protein on the virion) (influenza A virus H1N1 A/Puerto Rico/8/34) (UniProt P06821); experiment: ELISA on coated UV-inactivated A/PR/8/34 virus
[3] = target: influenza A/Puerto Rico/8/34 (PR8) virus particles (M2 protein on the virion) (influenza A virus H1N1 A/Puerto Rico/8/34) (UniProt P06821); experiment: ELISA on purified A/Puerto Rico/8/34 virus coated at 10 µg/ml
[4] = target: influenza A/Puerto Rico/8/34 (PR8) virus particles (M2 protein on the virion) (influenza A virus H1N1 A/Puerto Rico/8/34) (UniProt P06821); experiment: ELISA on virus, crude supernatant
[5] = target: influenza A/Puerto Rico/8/34 (PR8) virus particles (M2 protein on the virion) (influenza A virus H1N1 A/Puerto Rico/8/34) (UniProt P06821); experiment: ELISA on A/Puerto Rico/8/34 virus

Measured: binding

B1: 8I10 (TCN-032) (antibody, V domains shown)
VH: QVQLQESGPGLVKPSETLSLTCTVSGSSISNYYWSWIRQSPGKGLEWIGFIYYGGNTKYNPSLKSRVTISQDTSKSQVSLTMSSVTAAESAVYFCARASCSGGYCILDYWGQGTLVTVS
VL: DIQMTQSPSSLSASVGDRVTITCRASQNIYKYLNWYQQRPGKAPKGLISAASGLQSGVPSRFSGSGSGTDFTLTITSLQPEDFATYYCQQSYSPPLTFGGGTRVEIK
binds: [1] | [2] | [3] | [4] | [5]

B2: 21B15 (antibody, V domains shown)
VH: B1 VH
VL: B1 VL with M4V, E105D
binds: [1] | [4]
